Data reported in PubChem BioAssay AID1671190 (National Center for Advancing Translational Sciences (NCATS), 2021).
Among all 580,000 compounds or so, about 6,100 (1.1%) were called active. Inconclusive results, whose numbers are uncertain, are shown with a selection of clear calls. Calls come from the whole dose curve; as a rule, active = well fitted inhibition curve with a large enough effect; inconclusive = small, poorly fitted or top-dose-only effect, or another doubt; inactive = no such curve, though single readings can be large or run the other way. A potency beside an inconclusive call is a rough fit, not a confirmed value.

Sequences of proteins named here, by UniProt entry; tags and fusion partners are left off. A change or cut given only in a name is not applied to a line headed by its entry.
UniProt P18054: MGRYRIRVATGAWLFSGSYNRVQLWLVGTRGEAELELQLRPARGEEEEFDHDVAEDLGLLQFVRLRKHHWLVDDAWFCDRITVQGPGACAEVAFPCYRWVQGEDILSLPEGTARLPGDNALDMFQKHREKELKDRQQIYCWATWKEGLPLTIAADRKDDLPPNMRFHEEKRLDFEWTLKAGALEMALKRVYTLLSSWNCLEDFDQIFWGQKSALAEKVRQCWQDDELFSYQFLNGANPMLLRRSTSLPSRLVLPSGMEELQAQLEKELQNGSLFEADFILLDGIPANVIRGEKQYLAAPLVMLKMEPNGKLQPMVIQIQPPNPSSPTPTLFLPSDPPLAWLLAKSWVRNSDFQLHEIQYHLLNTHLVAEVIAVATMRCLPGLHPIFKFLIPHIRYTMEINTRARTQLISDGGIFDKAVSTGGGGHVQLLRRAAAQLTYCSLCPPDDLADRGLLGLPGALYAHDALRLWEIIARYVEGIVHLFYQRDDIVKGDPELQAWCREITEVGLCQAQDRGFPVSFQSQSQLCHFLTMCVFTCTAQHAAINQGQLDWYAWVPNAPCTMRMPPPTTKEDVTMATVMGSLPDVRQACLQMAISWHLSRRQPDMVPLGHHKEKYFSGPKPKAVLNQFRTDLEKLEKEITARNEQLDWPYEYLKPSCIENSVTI

Molecular target: Polyunsaturated fatty acid lipoxygenase ALOX12 (Homo sapiens) (UniProt P18054)
Test: Primary qHTS assay for inhibitors of human arachidonate 12S-lipoxygenase (ALOX12): Round 2
Conditions: purified 12hLO, xylenol orange hydroperoxide absorbance; activity change, negative = inhibition: at 108 µM (top of the series) unless noted
How it was run: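 Purified human 12hLO at 150 nM in 25 mM Hepes, 0.01% Triton X-100, pH 7.0, preincubated 15 min at room temperature with compound. Reaction started with 40 uM arachidonic acid, 30 min at room temperature. Hydroperoxide measured by Fe-xylenol orange, 573/405 nm absorbance ratio.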
% is set by controls: 0 for no effect and ±100 for the full control effect; potency is the fitted concentration of half-maximal effect.

Structure (SMILES) | activity change, negative = inhibition | Potency
N/C(=N\c1ncccn1)Nc1ccccc1 | inactive: 48.2% | 
Cc1nc(-c2cccc(F)c2)sc1CCNC(=O)C(=O)Nc1ccc2c(c1)OCCO2 |  | inconclusive: 100 µM [inhibitor, partial curve, poor fit]
O=C(CSc1ccc(F)cc1)NCCCSc1ccccc1 |  | inconclusive: 44.7 µM [inhibitor, partial curve, poor fit]
Nc1sc(-c2ccccc2)cc1C(=O)N1CCNCC1 |  | inconclusive: 22.4 µM [inhibitor, partial curve, poor fit]
CC(C)Cn1c(-c2ccccc2)cnc1SC(C)C(=O)NC(N)=O (configuration not stated) | inactive: 7.6% | 
CC(=O)Oc1ccc2c(c1)C(=O)c1ccccc1C2=O |  | inconclusive: 39.8 µM [inhibitor, single point]
Cc1nc2c(oc3ccccc32)c(=O)o1 |  | inconclusive: 50.1 µM [inhibitor, single point]
CC(C(=O)Nc1ccccc1)n1nnc2sc3c(c2c1=O)CCCC3 (configuration not stated) | inactive: -17.6% | 
CCCCn1c(CN2CCc3ccccc3C2)nc2c1c(=O)[nH]c(=O)n2Cc1ccccc1 |  | inconclusive: 50.1 µM [inhibitor, partial curve, poor fit]
CC(C)NC[C@H]1O[C@@H]2C[C@@H](CC(=O)NCc3nccn3C)O[C@@H]2[C@@H]1O |  | inconclusive: 5.01 µM [inhibitor, full curve]
S=C(NCc1ccc(Cl)cc1Cl)Nc1ccccc1 |  | inconclusive: 44.7 µM [inhibitor, partial curve, poor fit]
CCCCn1c(N2CCN(Cc3ccccc3F)CC2)nc2c1c(=O)[nH]c(=O)n2C | inactive: 1.6% | 
Cc1cc(C(=O)NCc2ccccc2)c2c(C)nn(-c3cccc(Cl)c3C)c2n1 |  | inconclusive: 126 µM [inhibitor, partial curve, poor fit]
COc1cc(Br)c(C#N)cc1OC |  | inconclusive: 35.5 µM [inhibitor, single point]
Cn1ccnc1CN1C(=O)CO[C@H]2CN(Cc3ccc(S(C)(=O)=O)cc3)C[C@H]21 |  | inconclusive: 8.91 µM [inhibitor, full curve, poor fit]
Cc1ccc(COC(=O)CSc2cnc3ccccc3n2)cc1 | inactive: -5.08% | 
S=c1[nH]nc(C2COc3ccccc3O2)o1 (configuration not stated) | inactive: 248% | 
Cc1nc(N2CCCCC2)ncc1C(=O)N[C@H]1[C@H]2CCO[C@H]2[C@@H]1N(C)C | inactive: 35.6% | 
O=C(c1cc(C(=O)N2CCCC2)cc([N+](=O)[O-])c1)N1CCCC1 | inactive: 7.67% | 
Cc1c(NS(C)(=O)=O)c(=O)n(-c2ccccc2)n1C | inactive: -19.6% | 
COc1ccc(-c2noc(-c3cccn3CC(=O)Nc3ccccc3F)n2)cc1F |  | inconclusive: 79.4 µM [inhibitor, single point]
COc1ccccc1NC(=S)NC1CCCC1 |  | inconclusive: 141 µM [inhibitor, partial curve, poor fit]
COc1cc(/C=C2\S/C(=N/S(=O)(=O)c3ccc(C)cc3)NC2=O)c([N+](=O)[O-])cc1OC |  | inconclusive: 44.7 µM [inhibitor, partial curve, poor fit]
CN1CCN(Cc2ccc(-c3ccc(Cl)cc3)o2)CC1 |  | inconclusive: 8.91 µM [inhibitor, full curve, poor fit]

Structure (SMILES) | activity change, negative = inhibition | Potency
O=[N+]([O-])c1cccc(NN=Nc2ccccc2)c1 |  | active: 15.8 µM
CC(NC(=O)C1CN(c2ccc(Cl)cc2)C(=O)N1)c1ccc(F)cc1 (configuration not stated) |  | inconclusive: 44.7 µM [inhibitor, partial curve]
Cc1ccccc1/C=N/NC(=O)c1ccc(-n2cnnn2)cc1 |  | inconclusive: 7.08 µM [inhibitor, full curve, poor fit]
CN(C(=O)c1ccc(Oc2ccc([N+](=O)[O-])cc2)cc1)C1CCCCC1 | inactive: 4.48% | 
COc1ccc(-c2ccc3c(n2)CCCN3Cc2ccccc2C(F)(F)F)cc1 |  | inconclusive: 15.8 µM [inhibitor, full curve]
CC(C)c1ccc(-c2csc(N=C(N)N)n2)cc1 | inactive: -1.28% | 
C=CCOc1ccc(C(c2c(C(=O)O)[nH]c3ccccc23)c2c(C(=O)O)[nH]c3ccccc23)cc1 |  | active: 28.2 µM
CCNC(=O)N(C1CC1)C1CCOC2(CCN(C(=O)CCc3cccc(OC)c3)CC2)C1 (configuration not stated) | inactive: 25.8% | 
Cc1ccc(NC(=O)CN(c2ccc(C)cc2)S(=O)(=O)c2cccc3nonc23)cc1 |  | inconclusive: 50.1 µM [inhibitor, partial curve, poor fit]
O=C(c1cccc(F)c1)N1CCC2(CC1)NC(=O)N(c1ccccc1Cl)N2 |  | active: 1.26 µM
CCOCCCn1c(=N)c(C(=O)NCc2ccccc2)cc2c(=O)n3ccccc3nc21 | inactive: 0% | 
O=C(Nc1cn[nH]c1)C1CCN(c2ccc(Cl)nn2)CC1 | inactive: -26.3% | 
COc1cccc(NC(=O)c2ncoc2-c2ccc(C)s2)c1 |  | inconclusive: 17.8 µM [inhibitor, full curve, poor fit]
CCCCNCCOCCOc1ccccc1-c1ccccc1 |  | inconclusive: 2.51 µM [inhibitor, full curve, poor fit]
CC(C)CCNC(=O)c1cnc2n1CCN(Cc1cccs1)CC2 | inactive: 8.75% [at 176 µM] | 
Cc1ccc(CN(C(=O)c2cc3ccccc3[nH]2)C(C)C)o1 |  | inconclusive: 8.91 µM [inhibitor, partial curve, poor fit]
CN(CC(=O)Nc1ccc(Cl)cc1)C(=O)COc1cccc(F)c1 |  | active: 39.8 µM
O=C(c1cccc2c1CCN2C(=O)C1CC1)N1CCCCC1 | inactive: 21.1% | 
COc1ccc(OC)c(/C=C2\SC(N3CCCCC3)=NC2=O)c1 |  | inconclusive: 89.1 µM [inhibitor, single point]
COc1ccc(OC)c(C(=O)Oc2cc(Cl)ccc2Cl)c1 |  | inconclusive: 89.1 µM [inhibitor, single point]
COc1ccc(-c2coc3cc(OCC(=O)NCc4ccc(F)cc4)ccc3c2=O)cc1OC |  | inconclusive: 89.1 µM [inhibitor, partial curve, poor fit]
Cc1c(C(=O)N2CCOCC2)oc2ccc(S(=O)(=O)N3CCCCCC3)cc12 | inactive: -20.1% | 
Oc1cccc(Nc2ncnc3c2oc2ccccc23)c1 |  | inconclusive: 39.8 µM [inhibitor, partial curve, poor fit]

Four entries out of the list, ordered by formula weight, ascending.
Structure (SMILES) | activity change, negative = inhibition | Potency
Cc1ccccc1/C=N/NC(=O)c1ccc(-n2cnnn2)cc1 |  | inconclusive: 7.08 µM [inhibitor, full curve, poor fit]
CC(NC(=O)C1CN(c2ccc(Cl)cc2)C(=O)N1)c1ccc(F)cc1 (configuration not stated) |  | inconclusive: 44.7 µM [inhibitor, partial curve]
CCOCCCn1c(=N)c(C(=O)NCc2ccccc2)cc2c(=O)n3ccccc3nc21 | inactive: 0% | 
COc1ccc(-c2coc3cc(OCC(=O)NCc4ccc(F)cc4)ccc3c2=O)cc1OC |  | inconclusive: 89.1 µM [inhibitor, partial curve, poor fit]
